Earlier results, collected in patent US6440389B1, “Fluorescent agents for real-time measurement of organ function” (The General Hospital Corporation, priority 2000, dated 2002).
At least one structure is not confirmed: it was looked up by name or label, or the drawing left a doubt.

Settings: cited from earlier work

SMILES: O=C(O)CN(CCN(CC(=O)O)CC(=O)O)CCN(CC(=O)O)CC(=O)O [DTPA, diethylenetriaminepentaacetic acid]
- affinity constant (k): 23
